Data from PMC4231765.
No constants are given. Whether binding was seen depends on the method and setting. For part of these data: Binding seen in cells or lysates may run through a third protein. Some results given as binding are weak or reduced against the parent protein; the word gives no strength. Sequences can lack the tags named with a protein.

Chains of the proteins cited; added tags and fusions are not shown.
UniProt Q9SP32: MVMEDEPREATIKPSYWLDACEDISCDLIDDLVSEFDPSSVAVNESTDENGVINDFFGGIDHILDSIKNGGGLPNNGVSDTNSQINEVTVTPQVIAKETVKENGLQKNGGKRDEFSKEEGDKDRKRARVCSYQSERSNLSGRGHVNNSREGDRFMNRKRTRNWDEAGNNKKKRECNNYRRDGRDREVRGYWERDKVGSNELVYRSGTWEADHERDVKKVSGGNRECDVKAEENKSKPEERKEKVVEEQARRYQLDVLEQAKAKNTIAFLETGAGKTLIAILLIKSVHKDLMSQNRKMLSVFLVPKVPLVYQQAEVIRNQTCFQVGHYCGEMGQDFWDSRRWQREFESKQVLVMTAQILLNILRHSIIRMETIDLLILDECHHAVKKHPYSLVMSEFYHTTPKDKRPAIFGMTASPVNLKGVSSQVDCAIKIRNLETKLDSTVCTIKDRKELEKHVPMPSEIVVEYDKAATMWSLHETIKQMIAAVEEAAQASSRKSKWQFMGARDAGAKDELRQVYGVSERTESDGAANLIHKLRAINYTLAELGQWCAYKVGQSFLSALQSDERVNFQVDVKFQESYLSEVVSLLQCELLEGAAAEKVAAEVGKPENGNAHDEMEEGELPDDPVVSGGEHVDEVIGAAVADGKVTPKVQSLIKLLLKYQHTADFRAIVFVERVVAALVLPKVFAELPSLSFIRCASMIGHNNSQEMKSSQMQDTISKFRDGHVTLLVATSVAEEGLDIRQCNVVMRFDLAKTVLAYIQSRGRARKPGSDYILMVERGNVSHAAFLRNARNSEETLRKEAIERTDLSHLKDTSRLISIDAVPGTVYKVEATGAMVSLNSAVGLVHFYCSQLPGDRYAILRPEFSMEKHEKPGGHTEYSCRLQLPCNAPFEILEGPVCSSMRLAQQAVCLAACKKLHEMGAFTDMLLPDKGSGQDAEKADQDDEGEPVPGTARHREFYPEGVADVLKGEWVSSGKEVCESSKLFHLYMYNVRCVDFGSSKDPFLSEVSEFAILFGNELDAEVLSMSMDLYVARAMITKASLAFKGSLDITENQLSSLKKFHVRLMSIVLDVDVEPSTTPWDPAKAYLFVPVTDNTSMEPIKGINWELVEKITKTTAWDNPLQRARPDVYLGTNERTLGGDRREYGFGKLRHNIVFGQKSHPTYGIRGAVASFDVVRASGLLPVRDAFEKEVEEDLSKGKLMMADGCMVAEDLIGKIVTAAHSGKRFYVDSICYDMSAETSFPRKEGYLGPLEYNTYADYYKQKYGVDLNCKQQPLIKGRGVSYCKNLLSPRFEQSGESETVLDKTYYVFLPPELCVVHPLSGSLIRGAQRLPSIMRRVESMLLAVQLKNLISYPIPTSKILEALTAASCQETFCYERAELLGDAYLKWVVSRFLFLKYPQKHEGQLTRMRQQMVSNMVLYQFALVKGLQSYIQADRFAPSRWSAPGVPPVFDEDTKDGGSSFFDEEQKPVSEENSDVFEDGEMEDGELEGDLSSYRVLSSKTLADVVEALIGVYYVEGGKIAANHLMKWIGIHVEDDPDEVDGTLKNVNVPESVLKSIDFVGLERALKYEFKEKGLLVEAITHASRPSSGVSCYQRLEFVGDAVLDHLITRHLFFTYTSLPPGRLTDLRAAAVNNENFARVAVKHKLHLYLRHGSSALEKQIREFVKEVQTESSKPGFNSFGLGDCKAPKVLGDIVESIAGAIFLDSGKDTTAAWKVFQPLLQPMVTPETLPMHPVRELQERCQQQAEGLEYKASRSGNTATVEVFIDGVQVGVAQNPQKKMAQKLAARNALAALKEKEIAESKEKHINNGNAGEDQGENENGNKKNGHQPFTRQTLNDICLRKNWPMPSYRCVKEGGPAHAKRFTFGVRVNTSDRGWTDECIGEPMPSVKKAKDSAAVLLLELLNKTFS

Tests used:
[1] = target: T1, HYL1, full-length, recombinant (MBP-HYL1 and GST-HYL1) (Arabidopsis thaliana) (UniProt O04492); assay: pull-down; recombinant HYL1 or mutant from E. coli with DCL1 or SE tagged with 3×Flag purified from HEK293; western analysis; bait not stated; both purified
T1 sequence: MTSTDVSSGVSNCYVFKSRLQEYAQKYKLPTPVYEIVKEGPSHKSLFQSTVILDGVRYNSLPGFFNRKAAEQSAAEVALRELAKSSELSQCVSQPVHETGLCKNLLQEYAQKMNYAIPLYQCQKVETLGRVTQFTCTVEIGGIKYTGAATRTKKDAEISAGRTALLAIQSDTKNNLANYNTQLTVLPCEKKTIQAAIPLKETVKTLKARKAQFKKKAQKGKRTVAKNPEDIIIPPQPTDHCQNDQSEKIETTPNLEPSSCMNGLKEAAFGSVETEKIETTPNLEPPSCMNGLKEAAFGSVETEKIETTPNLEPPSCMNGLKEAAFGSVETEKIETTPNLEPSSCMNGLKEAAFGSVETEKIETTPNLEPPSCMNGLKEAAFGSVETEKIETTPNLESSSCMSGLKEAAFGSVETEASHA

[2] = target: T2, HYL1^G147E, recombinant (MBP-G147E and GST-G147E) (Arabidopsis thaliana) (UniProt O04492); assay: as above
T2 sequence: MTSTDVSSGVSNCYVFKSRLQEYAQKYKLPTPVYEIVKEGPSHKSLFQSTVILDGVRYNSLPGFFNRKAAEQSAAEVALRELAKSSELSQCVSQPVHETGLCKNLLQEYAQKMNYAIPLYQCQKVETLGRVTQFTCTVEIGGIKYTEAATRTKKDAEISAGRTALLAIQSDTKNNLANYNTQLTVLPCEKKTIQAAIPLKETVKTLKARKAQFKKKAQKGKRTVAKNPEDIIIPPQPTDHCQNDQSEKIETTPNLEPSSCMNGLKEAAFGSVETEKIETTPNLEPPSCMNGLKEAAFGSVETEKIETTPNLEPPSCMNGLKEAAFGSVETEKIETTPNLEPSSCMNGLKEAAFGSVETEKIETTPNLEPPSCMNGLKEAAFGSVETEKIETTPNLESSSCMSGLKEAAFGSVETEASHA

[3] = target: T3, HYL1^L165E, recombinant (MBP-L165E and GST-L165E) (Arabidopsis thaliana) (UniProt O04492); assay: as above
T3 sequence: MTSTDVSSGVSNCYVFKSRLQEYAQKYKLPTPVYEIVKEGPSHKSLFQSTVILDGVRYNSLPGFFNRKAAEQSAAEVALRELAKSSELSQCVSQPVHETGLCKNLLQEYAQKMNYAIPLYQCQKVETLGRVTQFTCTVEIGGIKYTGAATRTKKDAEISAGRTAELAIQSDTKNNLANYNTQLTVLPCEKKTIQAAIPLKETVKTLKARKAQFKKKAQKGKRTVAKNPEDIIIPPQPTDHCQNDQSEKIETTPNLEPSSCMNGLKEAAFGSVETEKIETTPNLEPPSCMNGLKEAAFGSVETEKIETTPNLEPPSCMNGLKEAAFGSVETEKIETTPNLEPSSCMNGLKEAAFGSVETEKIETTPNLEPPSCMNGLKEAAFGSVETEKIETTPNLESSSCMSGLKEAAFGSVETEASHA

[4] = target: T4, HYL1^L165E, BiFC fusion (Arabidopsis thaliana) (UniProt O04492); assay: split reporter; BiFC: cYFP-tagged and nYFP-tagged constructs cotransformed into Arabidopsis protoplasts, 22.5°C in darkness for 12 h, confocal microscopy
T4 sequence: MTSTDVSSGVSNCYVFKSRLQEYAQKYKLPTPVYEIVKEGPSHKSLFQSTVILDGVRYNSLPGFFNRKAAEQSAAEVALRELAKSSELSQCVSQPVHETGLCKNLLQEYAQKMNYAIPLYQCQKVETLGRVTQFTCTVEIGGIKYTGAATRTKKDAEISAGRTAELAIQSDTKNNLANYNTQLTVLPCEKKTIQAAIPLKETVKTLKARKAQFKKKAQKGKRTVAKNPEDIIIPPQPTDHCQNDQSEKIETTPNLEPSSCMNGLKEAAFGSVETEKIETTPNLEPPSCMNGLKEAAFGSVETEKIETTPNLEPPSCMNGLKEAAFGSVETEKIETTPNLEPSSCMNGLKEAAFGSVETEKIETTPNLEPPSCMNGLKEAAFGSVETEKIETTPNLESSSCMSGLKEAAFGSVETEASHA

[5] = target: T5, HYL1^G147E, BiFC fusion (Arabidopsis thaliana) (UniProt O04492); assay: as above
T5 sequence: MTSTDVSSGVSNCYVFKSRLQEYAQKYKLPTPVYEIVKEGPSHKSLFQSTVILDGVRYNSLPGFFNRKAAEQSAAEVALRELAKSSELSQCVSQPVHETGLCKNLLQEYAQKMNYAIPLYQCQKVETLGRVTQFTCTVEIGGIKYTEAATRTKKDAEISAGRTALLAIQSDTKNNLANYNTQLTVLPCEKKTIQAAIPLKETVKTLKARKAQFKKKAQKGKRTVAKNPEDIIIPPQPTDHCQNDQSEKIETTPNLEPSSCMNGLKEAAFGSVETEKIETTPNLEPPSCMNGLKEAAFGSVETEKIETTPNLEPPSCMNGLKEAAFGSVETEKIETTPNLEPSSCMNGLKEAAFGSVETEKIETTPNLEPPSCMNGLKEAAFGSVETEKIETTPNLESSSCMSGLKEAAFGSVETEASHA

[6] = target: T6, HYL1, wild type, BiFC fusion (nYFP- and cYFP-tagged) (Arabidopsis thaliana) (UniProt O04492); assay: as above
T6 sequence: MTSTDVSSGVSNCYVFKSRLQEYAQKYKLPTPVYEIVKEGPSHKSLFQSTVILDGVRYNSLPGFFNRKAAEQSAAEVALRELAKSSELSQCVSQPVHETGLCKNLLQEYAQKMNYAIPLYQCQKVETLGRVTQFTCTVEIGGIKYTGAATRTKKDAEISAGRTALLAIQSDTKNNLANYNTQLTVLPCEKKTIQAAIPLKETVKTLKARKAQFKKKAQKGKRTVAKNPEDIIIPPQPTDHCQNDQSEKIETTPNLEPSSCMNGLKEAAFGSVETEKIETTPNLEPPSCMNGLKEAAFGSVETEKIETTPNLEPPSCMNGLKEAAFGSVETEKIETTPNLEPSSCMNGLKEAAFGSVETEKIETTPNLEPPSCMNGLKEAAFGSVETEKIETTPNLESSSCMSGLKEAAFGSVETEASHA

[7] = target: T7, HYL1 R151E, BiFC fusion (Arabidopsis thaliana) (UniProt O04492); assay: split reporter; BiFC in Arabidopsis protoplasts, data not shown
T7 sequence: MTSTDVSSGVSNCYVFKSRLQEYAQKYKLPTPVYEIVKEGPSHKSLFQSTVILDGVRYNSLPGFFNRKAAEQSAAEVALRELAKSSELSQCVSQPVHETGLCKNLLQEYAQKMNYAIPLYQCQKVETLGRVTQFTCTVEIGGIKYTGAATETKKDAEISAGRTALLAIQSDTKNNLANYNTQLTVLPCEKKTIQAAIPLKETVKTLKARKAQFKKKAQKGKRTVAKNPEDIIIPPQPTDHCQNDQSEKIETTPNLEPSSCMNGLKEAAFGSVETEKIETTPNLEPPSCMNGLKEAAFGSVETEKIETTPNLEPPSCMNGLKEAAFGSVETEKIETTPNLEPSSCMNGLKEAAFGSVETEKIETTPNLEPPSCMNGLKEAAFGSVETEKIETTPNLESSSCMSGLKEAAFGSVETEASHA

[8] = target: T8, HYL1 R162E, BiFC fusion (Arabidopsis thaliana) (UniProt O04492); assay: as above
T8 sequence: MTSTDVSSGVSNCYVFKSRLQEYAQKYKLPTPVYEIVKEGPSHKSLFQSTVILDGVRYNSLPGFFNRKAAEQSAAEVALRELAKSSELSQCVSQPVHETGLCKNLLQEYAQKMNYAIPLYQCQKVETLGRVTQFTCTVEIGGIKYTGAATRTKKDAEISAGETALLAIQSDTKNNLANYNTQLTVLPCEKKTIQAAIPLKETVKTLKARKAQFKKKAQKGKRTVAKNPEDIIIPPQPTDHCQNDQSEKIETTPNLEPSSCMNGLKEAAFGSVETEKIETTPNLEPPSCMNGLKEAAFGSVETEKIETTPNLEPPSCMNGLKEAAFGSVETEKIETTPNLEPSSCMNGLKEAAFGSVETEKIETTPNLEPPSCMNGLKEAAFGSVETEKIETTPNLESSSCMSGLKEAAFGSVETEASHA

[9] = target: T9, HYL1 K154E, BiFC fusion (Arabidopsis thaliana) (UniProt O04492); assay: as above
T9 sequence: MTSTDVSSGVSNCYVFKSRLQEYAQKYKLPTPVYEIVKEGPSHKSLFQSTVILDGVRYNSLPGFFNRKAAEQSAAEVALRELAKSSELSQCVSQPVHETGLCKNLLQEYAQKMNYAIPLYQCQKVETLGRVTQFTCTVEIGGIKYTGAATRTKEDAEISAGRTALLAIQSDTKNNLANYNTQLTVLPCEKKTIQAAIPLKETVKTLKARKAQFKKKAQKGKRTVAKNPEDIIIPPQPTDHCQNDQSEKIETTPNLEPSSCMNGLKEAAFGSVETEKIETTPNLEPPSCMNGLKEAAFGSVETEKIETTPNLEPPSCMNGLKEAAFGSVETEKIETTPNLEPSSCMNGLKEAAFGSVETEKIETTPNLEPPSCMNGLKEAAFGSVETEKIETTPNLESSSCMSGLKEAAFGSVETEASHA

Measured: binding

DCL1 tagged with 3×Flag, recombinant (from UniProt Q9SP32 1-1909) (enzyme)
binds: [1] | [2] | [3]

DCL1, BiFC fusion (from UniProt Q9SP32 1-1909) (enzyme)
not listed: [1] | [2] | [3]
binds: all other assays above
